This test addresses AtSAG:GFP (Arabidopsis thaliana). The test is described as follows: co-IP; AtSAG:GFP as bait; one differing band of about 30 kDa on SDS-PAGE analysed further to identify the proteins; how they were identified and the conditions are not told.

The text below walks through data of paper PMC3883281.

Results are given in words; binding and its absence hold for the method and conditions named. Binding seen in cells or lysates may run through a third protein. Binding calls can cover weak binding; strength is not graded here.

B1: protein encoded by At4g36700 (protein, UniProt F4JQG6 26-522)
chain: KSEESEEYDVAVPSCCGFSSPLLIKKDQWKPIFETKFGQISTVQIGNGCGGMGPYKIHSITLEPNTILLPLLLHSDMVFFVDSGSGILNWVDEEAKSTEIRLGDVYRLRPGSVFYLQSKPVDIFLGTKLKLYAIFSNNDECLHDPCFGAYSSITDLMFGFDETILQSAFGVPEGIIELMRNRTKPPLIVSETLCTPGVANTWQLQPRLLKLFAGSADLVDNKKKKEKKEKKEKVKKAKTFNVFESEPDFESPYGRTITINRKDLKVLKGSMVGVSMVNLTQGSMMGPHWNPWACEISIVLKGAGMVRVLRSSISSNTSSECKNVRFKVEEGDIFAVPRLHPMAQMSFNNDSLVFVGFTTSAKNNEPQFLAGEDSALRMLDRQVLAASLNVSSVTIDGLLGAQKEAVILECHSCAEGEIEKLKVEIERKKIDDERKRRHDERKKEEEEAKREEEERRKREEEEEKKRWPPQQPPQEEELRERQLPMEKEWEMEGEEES
With B1, the binding entry is given as “binds”.

B2: protein encoded by At3g01570 (protein, UniProt Q9SS98 1-183)
chain: MADVRTHSHQLQVHPQRQHEGGIKVLYPQSGPSSTQVLAVFVGVPIGGTLLTIAGLTLAGSVIGLMLAFPLFLIFSPVIVPAAFVIGLAMTGFLASGAIGLTGLSSMSWVLNYIRRAGQHIPEELEEAKHRLADMAEYVGQRTKDAGQTIEDKAHDVREAKTFDVRDRDTTKGTHNVRDTKTT
Take B2: the binding result was “binds”.
